Laboratory results published in paper PMC9041834.
No constants are given. Whether binding was seen depends on the method and setting. In cells and extracts the contact can be indirect. Some results given as binding are weak or reduced against the parent protein; the word gives no strength.

Protein sequences, listed by entry. Tags and fused reporters are not part of them.
UniProt Q18223: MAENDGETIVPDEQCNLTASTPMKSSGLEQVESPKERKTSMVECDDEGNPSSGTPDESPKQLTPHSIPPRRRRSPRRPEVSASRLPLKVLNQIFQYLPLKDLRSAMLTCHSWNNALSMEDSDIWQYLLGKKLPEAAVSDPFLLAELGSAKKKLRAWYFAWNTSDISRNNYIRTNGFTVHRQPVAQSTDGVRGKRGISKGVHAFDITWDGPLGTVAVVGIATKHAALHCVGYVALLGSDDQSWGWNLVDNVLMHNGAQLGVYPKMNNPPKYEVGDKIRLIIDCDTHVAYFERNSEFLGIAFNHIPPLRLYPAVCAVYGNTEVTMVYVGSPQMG
UniProt G5ECH7: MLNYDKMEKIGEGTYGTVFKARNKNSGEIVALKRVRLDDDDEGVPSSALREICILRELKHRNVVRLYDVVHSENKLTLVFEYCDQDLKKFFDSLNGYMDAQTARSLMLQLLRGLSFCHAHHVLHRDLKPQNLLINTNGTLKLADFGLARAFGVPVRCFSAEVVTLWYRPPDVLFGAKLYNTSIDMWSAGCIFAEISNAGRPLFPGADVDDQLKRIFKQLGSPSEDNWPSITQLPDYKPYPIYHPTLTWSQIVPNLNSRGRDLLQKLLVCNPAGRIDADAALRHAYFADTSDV

Biological target: GFP::FSN-1 CRISPR (endogenous FSN-1 N-terminally fused with GFP) (C. elegans) (UniProt Q18223)
Experiment: co-IP; CRISPR-tagged endogenous proteins in whole animal lysates of C. elegans (wild-type background, and rpm-1 LD CRISPR background for the FSN-1 pair); 50 mM Tris HCl pH 7.5, 150 mM NaCl, 1.5 mM MgCl2, 10% glycerol, 0.1% NP-40, 1 mM DTT; anti-FLAG or anti-GFP, protein-G agarose 4 h at 4°C; immunoblot

binding: binds
Substance: CDK-5::3xFLAG CRISPR (endogenous CDK-5 C-terminally tagged with 3xFLAG) (from UniProt G5ECH7 1-292) (enzyme)
